Results deposited as PubChem BioAssay AID1159578 (Peter MacCallum Cancer Centre, 2015).
Test: 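Knock-downs that alter how fast lymphatic endothelial cells migrate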 (primary screen). Cell system: human lymphatic endothelial cells. Reagent: siRNA pool against human genes, 40 nM. Timing: 48 h after transfection. Measurement: 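Cells stained with dye and imaged after a scratch; covered wound area and nuclei counted, duplicates averaged, migration set against mock wells and turned into a robust z-score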. Direction: migration robust z-score: higher = faster migration into the scratch; migration relative to mock: higher = more scratch area covered than mock; nuclei per well: higher = more cells in the well. Call rule: 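Pools averaging fewer than 3300 nuclei are never called; remaining pools count as changed when migration robust z lies outside -2 to 2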. Meaning of the calls: active = migration changed; inactive = no migration change, or too few cells.
This is an unselected part of about 18,000 deposited reagents. About 1,030 of all reagents (5.7%) were called active. 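Inactive calls also include pools with fewer than 3300 nuclei, whose migration was not assessed.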 Raw values vary from plate to plate and are shown uncorrected.

no.	Gene	migration robust z-score	migration class with cell-count check	migration relative to mock	nuclei per well, duplicate mean	Outcome
1	SLC5A6 (GeneID 8884)	-0.42	migration z between -2 and 2; enough cells	0.77	6899	inactive
2	NPBWR2 (GeneID 2832)	-0.9	migration z between -2 and 2; enough cells	0.63	5714	inactive
3	SARS1 (GeneID 6301)	0.65	migration z between -2 and 2; enough cells	0.93	4890	inactive
4	ENO2 (GeneID 2026)	0.88	migration z between -2 and 2; enough cells	0.98	6166	inactive
5	TPCN2 (GeneID 219931)	0.28	migration z between -2 and 2; enough cells	0.86	6308	inactive
6	RYR2 (GeneID 6262)	-0.13	migration z between -2 and 2; enough cells	0.78	5980	inactive
7	DEFB128 (GeneID 245939)	0.22	migration z between -2 and 2; enough cells	0.94	5762	inactive
8	SAP130 (GeneID 79595)	-0.2	migration z between -2 and 2; enough cells	0.83	5460	inactive
9	PRND (GeneID 23627)	-1.29	migration z between -2 and 2; enough cells	0.55	5248	inactive
10	HOXD3 (GeneID 3232)	0.35	migration z between -2 and 2; enough cells	0.98	5746	inactive
11	IGF2BP3 (GeneID 10643)	-0.8	migration z between -2 and 2; enough cells	0.68	5904	inactive
12	SLC25A44 (GeneID 9673)	-0.88	migration z between -2 and 2; enough cells	0.64	4284	inactive
13	DARS2 (GeneID 55157)	-0.44	migration z between -2 and 2; enough cells	0.77	5396	inactive
14	TMEM217 (GeneID 221468)	0.83	migration z between -2 and 2; enough cells	1.1	4901	inactive

Quoted from the entries so far (5 entries):
no.	Gene	migration robust z-score	migration class with cell-count check	migration relative to mock	nuclei per well, duplicate mean	Outcome
2	NPBWR2 (GeneID 2832)	-0.9	migration z between -2 and 2; enough cells	0.63	5714	inactive
3	SARS1 (GeneID 6301)	0.65	migration z between -2 and 2; enough cells	0.93	4890	inactive
4	ENO2 (GeneID 2026)	0.88	migration z between -2 and 2; enough cells	0.98	6166	inactive
5	TPCN2 (GeneID 219931)	0.28	migration z between -2 and 2; enough cells	0.86	6308	inactive
6	RYR2 (GeneID 6262)	-0.13	migration z between -2 and 2; enough cells	0.78	5980	inactive

Further results follow.
no.	Gene	migration robust z-score	migration class with cell-count check	migration relative to mock	nuclei per well, duplicate mean	Outcome
15	RPUSD3 (GeneID 285367)	0.94	migration z between -2 and 2; enough cells	1.13	5040	inactive
16	ZFP82 (GeneID 284406)	-1.11	migration z between -2 and 2; enough cells	0.6	5280	inactive
17	ZBTB16 (GeneID 7704)	-4.93	under 3300 nuclei; migration not judged	-0.15	2154	inactive
18	MAP7D1 (GeneID 55700)	-0.26	migration z between -2 and 2; enough cells	0.82	5491	inactive
19	ZFAND2A (GeneID 90637)	0.76	migration z between -2 and 2; enough cells	1.08	4731	inactive
20	CRYGN (GeneID 155051)	-0.89	migration z between -2 and 2; enough cells	0.66	5911	inactive
21	BAG1 (GeneID 573)	1.4	migration z between -2 and 2; enough cells	1.08	5180	inactive
22	ZNF321P (GeneID 399669)	-1.69	migration z between -2 and 2; enough cells	0.44	4056	inactive
23	DYRK1B (GeneID 9149)	-0.16	migration z between -2 and 2; enough cells	0.78	4986	inactive
24	MACROH2A1 (GeneID 9555)	-0.41	migration z between -2 and 2; enough cells	0.78	6527	inactive
25	EMC4 (GeneID 51234)	-0.01	migration z between -2 and 2; enough cells	0.89	7038	inactive
26	BCL2L13 (GeneID 23786)	-0.57	migration z between -2 and 2; enough cells	0.7	4968	inactive
27	SLC17A7 (GeneID 57030)	0.34	migration z between -2 and 2; enough cells	0.87	3940	inactive
28	CARINH (GeneID 441108)	1.16	migration z between -2 and 2; enough cells	1.18	7436	inactive
29	TMEM37 (GeneID 140738)	-0.05	migration z between -2 and 2; enough cells	0.8	5981	inactive
30	AMN (GeneID 81693)	0.13	migration z between -2 and 2; enough cells	0.92	5746	inactive
31	ATP8B3 (GeneID 148229)	0.21	migration z between -2 and 2; enough cells	0.84	5746	inactive
32	SOX6 (GeneID 55553)	0.23	migration z between -2 and 2; enough cells	0.95	5116	inactive
33	CCZ1 (GeneID 51622)	0.08	migration z between -2 and 2; enough cells	0.9	5794	inactive
34	KDF1 (GeneID 126695)	-3.67	under 3300 nuclei; migration not judged	-0.09	3088	inactive
35	CFAP126 (GeneID 257177)	-0.54	migration z between -2 and 2; enough cells	0.75	4609	inactive
36	PON3 (GeneID 5446)	0.34	migration z between -2 and 2; enough cells	0.98	8462	inactive
37	PTPN23 (GeneID 25930)	-0.05	migration z between -2 and 2; enough cells	0.8	5812	inactive
38	TMC8 (GeneID 147138)	0.52	migration z between -2 and 2; enough cells	1.02	5714	inactive
39	HAUS4 (GeneID 54930)	1.04	migration z between -2 and 2; enough cells	1.15	5959	inactive
